{
  "sequences": {"note": "Protein sequences, listed by entry. Tags and fused reporters are not part of them. Residues count along the entry.", "UniProt Q9NZQ7, 19-290": "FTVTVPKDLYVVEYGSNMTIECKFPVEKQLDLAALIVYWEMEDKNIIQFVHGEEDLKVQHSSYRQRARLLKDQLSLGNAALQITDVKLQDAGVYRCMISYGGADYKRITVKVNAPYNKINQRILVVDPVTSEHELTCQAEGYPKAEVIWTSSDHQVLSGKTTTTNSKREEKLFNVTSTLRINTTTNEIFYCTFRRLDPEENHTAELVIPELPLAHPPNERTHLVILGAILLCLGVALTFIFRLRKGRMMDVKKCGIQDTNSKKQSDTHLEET"},
  "source": "patent US10584341",
  "biological_target": "PDL1 (CD274) on HOP92 cells (Homo sapiens) (UniProt Q9NZQ7)",
  "assay": "flow cytometry",
  "conditions": "100 nM, stronger signal, text says HOP92 high PDL1 (figure legend says low), protein on the cell surface, protein details: endogenous, single-stranded DNA, variant of AP32 (62-nt)",
  "note": "Where cells or extracts were used, other partners may take part.",
  "data": [
    {"sequence": "ACGGGCCACATCAACTCATTGATAGACAATGCGTCCACTGCCCGT [aptPDL1 fluorescently labeled]", "values": [
      {"measurement": "binding result", "value": "binds"}
    ]}
  ]
}
